Experimental data published in article PMC5996148.
Some of the results follow. For some assays here: Construct or isoform of the protein are uncertain.

By UniProt entry, the sequences of proteins in these tests, tags left out. Where a name states a change or a piece, a line headed by the entry shows the natural chain unless it says otherwise.
UniProt Q96JL9: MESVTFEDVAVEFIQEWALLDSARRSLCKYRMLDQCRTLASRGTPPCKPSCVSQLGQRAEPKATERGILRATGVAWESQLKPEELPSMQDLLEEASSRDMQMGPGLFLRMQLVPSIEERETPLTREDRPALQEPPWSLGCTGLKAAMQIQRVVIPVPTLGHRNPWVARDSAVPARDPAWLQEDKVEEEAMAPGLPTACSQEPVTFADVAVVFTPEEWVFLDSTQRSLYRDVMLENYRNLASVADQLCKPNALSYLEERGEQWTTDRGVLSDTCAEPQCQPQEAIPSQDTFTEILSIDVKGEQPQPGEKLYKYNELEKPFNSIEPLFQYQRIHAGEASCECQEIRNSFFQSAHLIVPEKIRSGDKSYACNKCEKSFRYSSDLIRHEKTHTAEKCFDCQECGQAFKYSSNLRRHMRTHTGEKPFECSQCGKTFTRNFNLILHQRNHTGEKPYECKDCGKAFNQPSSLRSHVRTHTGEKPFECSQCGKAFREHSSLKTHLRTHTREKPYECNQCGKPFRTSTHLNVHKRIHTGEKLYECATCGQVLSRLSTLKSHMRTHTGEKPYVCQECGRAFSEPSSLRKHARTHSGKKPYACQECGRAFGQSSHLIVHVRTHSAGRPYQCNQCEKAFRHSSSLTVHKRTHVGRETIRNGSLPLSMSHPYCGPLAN
UniProt Q8TF39: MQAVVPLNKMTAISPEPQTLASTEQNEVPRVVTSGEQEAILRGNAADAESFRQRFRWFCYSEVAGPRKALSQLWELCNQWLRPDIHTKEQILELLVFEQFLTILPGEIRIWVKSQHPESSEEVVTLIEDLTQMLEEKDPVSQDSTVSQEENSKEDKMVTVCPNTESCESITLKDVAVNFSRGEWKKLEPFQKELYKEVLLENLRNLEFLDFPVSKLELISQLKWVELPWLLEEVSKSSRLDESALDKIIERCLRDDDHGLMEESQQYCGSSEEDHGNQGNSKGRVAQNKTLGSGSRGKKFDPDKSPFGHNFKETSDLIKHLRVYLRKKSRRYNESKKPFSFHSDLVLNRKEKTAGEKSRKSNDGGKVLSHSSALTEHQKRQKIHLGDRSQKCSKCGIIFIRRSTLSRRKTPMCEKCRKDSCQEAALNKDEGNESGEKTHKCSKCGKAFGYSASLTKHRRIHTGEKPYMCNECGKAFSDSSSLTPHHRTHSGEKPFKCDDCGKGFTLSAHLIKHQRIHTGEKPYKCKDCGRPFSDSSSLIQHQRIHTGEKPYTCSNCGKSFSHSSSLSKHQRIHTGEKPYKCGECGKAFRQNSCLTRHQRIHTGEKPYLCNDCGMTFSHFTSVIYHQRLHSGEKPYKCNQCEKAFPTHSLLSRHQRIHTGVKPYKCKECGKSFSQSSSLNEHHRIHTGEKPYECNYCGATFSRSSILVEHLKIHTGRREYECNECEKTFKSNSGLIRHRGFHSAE

Experiments:
Experiment in all cases: protein microarray (ProtoArray v5.0), streptavidin-Alexa Fluor 647
Details in all cases: 3'-biotin; 20 mM Tris (pH 7.5), 5 mM MgCl2, 100 mM KCl, 0.1% Tween-20, A/T-rich and random oligonucleotide blockers; temperature not stated; high values mean tight binding
YIPF4 (human) = test system: YIPF4 (human)
YIPF5 (human) = test system: YIPF5 (human)
YKT6 (human) = test system: YKT6 (human)
YSK4 (human) = test system: YSK4 (human)
ZBED2 (human) = test system: ZBED2 (human)
ZBTB25 (human) = test system: ZBTB25 (human)
ZBTB8OS (human) = test system: ZBTB8OS (human)
ZDHHC19 (human) = test system: ZDHHC19 (human)
ZMYM5 (human) = test system: ZMYM5 (human)
ZMYM6 (human) = test system: ZMYM6 (human)
ZNF174 (human) = test system: ZNF174 (human)
ZNF226 (human) = test system: ZNF226 (human)
ZNF3 (human) = test system: ZNF3 (human)
ZNF333 = ZNF333 (UniProt Q96JL9)
ZNF343 (human) = test system: ZNF343 (human)
ZNF434 (human) = test system: ZNF434 (human)
ZNF44 (human) = test system: ZNF44 (human)
ZNF483 = ZNF483 (UniProt Q8TF39)
ZNF551 (human) = test system: ZNF551 (human)
ZNF616 (human) = test system: ZNF616 (human)

Which results are given for “GGGAGGCTGAGGCAGG [G4-1 biotinylated (PQS2)]”?
binding signal (YIPF4 (human)): -0.343 z-score; binding signal (YIPF5 (human)): -0.264 z-score; binding signal (YKT6 (human)): -0.348 z-score; binding signal (YSK4 (human)): -0.334 z-score; binding signal (ZBED2 (human)): -0.327 z-score; binding signal (ZBTB25 (human)): -0.346 z-score; binding signal (ZBTB8OS (human)): -0.362 z-score; binding signal (ZDHHC19 (human)): -0.303 z-score; binding signal (ZMYM5 (human)): -0.38 z-score; binding signal (ZMYM6 (human)): -0.345 z-score; binding signal (ZNF174 (human)): -0.316 z-score; binding signal (ZNF226 (human)): -0.301 z-score; binding signal (ZNF3 (human)): -0.359 z-score; binding signal (ZNF333): -0.345 z-score; binding signal (ZNF343 (human)): -0.31 z-score; binding signal (ZNF434 (human)): -0.311 z-score; binding signal (ZNF44 (human)): -0.308 z-score; binding signal (ZNF483): -0.362 z-score; binding signal (ZNF551 (human)): -0.288 z-score; binding signal (ZNF616 (human)): -0.338 z-score
